{
  "source": "patent US6008239A",
  "about": "“Triazole derivative or salt thereof” (SSP Co., Ltd., priority 1997, dated 1999)",
  "test_system": "C. albicans ATCC 44859",
  "test": "Antifungal Activity Against Candida albicans (In vitro)",
  "format": "cell-based",
  "conditions": "ATCC44859, MEM + 10% fetal bovine serum, 37° C., 24 hours, CO2 incubator, read-out: Terminal point (minimum medicament concentration permitting apparent suppression of mycerial type growth)",
  "procedure": "Test 1: Antifungal Activity Against Candida albicans (In vitro)\nThey were incubated at 37° C. for 24 hours in a CO2 gas incubator. After incubation, a morphological change of C. albicans was observed under an inverted microscope. The minimum medicament concentration permitting the apparent suppression of mycerial type growth compared with that of a medicament-free control was determined as a terminal point (ng/ml).",
  "data": [
    {"compound": "OC(Cn1cncn1)(Cn1cncn1)c1ccc(F)cc1F", "note": "[Fluconazole, reference compound]", "values": [
      {"measurement": "MIC", "result": 0.25, "unit": "µg/mL"}
    ]}
  ]
}
